Results as given in publication PMC6857076 (Pharmacology Research & Perspectives, 2019).

Tested on: JAK-dependent cytokine receptors
Assay: Integrated modeling: calculated cytokine receptor inhibitory concentrations (ICxx)
Parameters: species or system human
Conditions: calculated ICxx at clinically meaningful doses, Figure 1

CCS(=O)(=O)N1CC(CC#N)(n2cc(-c3ncnc4[nH]ccc34)cn2)C1 [Baricitinib]
Inhibition (ICxx) of JAK2/TYK2-mediated cytokine receptors (IL-12, IL-23, and EPO) vs other JAK inhibitors: numerically greater
